PubChem BioAssay AID1259308, NCATS – 2017

Test: 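Candidate targets for better recombinant protein yield in mammalian cells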 (primary screen)
Cells: human HEK293 embryonic kidney cells stably expressing firefly luciferase (HEK-CMV-Luc2-Hygro)
Knock-down reagent: single siRNA against human genes, 0.8 pmol siRNA per well
Time to read-out: 72 h
Measured: 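Luciferase light (ONE-Glo) measured on one replicate plate set and viability (CellTiter-Glo) on the other, scaled to a negative control siRNA, with robust z-scores and luciferase per cell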
Direction: total luciferase, z-score and total luciferase, % of control: higher = more reporter protein produced; luciferase per cell, z-score: higher = more reporter output per viable cell; viable cells, % of control: higher = more viable cells
Hit rule: 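Active when the median/MAD z-score for overall luciferase is greater than 3; a gene was taken forward for validation with new siRNAs if at least two of its three siRNAs passed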
Calls: active = raised luciferase; inactive = no rise
This is an unselected part of about 59,000 reagents. Of all reagents, about 1,510 (2.6%) are marked active. 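Calls use total luciferase alone and ignore viability, so some active siRNAs may act by altering cell number.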 Entries without a mark were called inactive. Reagents against one gene are numbered here.

no.	gene symbol	reagent no.	total luciferase, z-score	total luciferase, % of control	luciferase per cell, z-score	viable cells, % of control
1	KBTBD6	1	1.36	109	0.74	100
2	KBTBD6	2	0.571	93.2	0.0236	104
3	KBTBD6	3	0.192	85.7	0.131	92.5
4	RPS26P40	1	-3.16	19.1	-3.75	57.1
5	RPS26P40	2	-3.13	19.6	-3.91	61.3
6	RPS26P40	3	-2.71	28	-2.14	54.9
7	TUT7	1	1.33	108	1.17	89
8	TUT7	2	1.94	120	1.64	87.4
9	TUT7	3	1.02	102	0.458	101
10	RARB	1	0.204	85.9	-0.768	118
11	RARB	2	0.0649	83.2	-0.172	97.3
12	RARB	3	-1.06	60.7	-1.34	96.5
13	PCM1	1	-1.12	59.6	-1.1	89.1
14	PCM1	2	-1.34	55.1	-1.08	81.9
15	PCM1	3	1.34	108	0.805	98
16	DDX43	1	-1.36	54.8	-1.02	80.1
17	DDX43	2	-0.832	65.3	-0.745	88.8
18	DDX43	3	-0.923	63.5	-0.00434	71.1
19	FAM181A	1	0.457	91	0.311	93.7
20	FAM181A	2	0.173	85.3	-0.434	107
21	FAM181A	3	-0.179	78.3	0.252	81.9
22	COL1A1	1	0.743	96.7	0.766	88.3
23	COL1A1	2	0.133	84.5	0.461	83.7
24	COL1A1	3	1.1	104	1.97	69.1
25	MCHR2-AS1	1	-0.408	73.8	-1.08	109
26	MCHR2-AS1	2	0.242	86.7	0.182	92.4
27	MCHR2-AS1	3	-0.46	72.7	-0.0802	83
28	BCL9L	1	-0.036	81.2	1.19	66.3
29	BCL9L	2	0.629	94.4	0.811	85.2
30	BCL9L	3	-2.17	38.8	-2	73.4
31	TOB1	1	0.484	91.5	1.19	74.8
32	TOB1	2	-0.646	69	-0.037	77.9
33	TOB1	3	0.16	85.1	0.204	90.1
34	NPHP1	1	-0.212	77.7	-0.0499	87.9
35	NPHP1	2	-0.791	66.2	-0.807	91.4
36	NPHP1	3	-0.0586	80.7	0.273	83.9
37	SAE1	1	-0.402	73.9	-0.0601	83.9
38	SAE1	2	0.529	92.4	-0.0173	104
39	SAE1	3	2.43	130	1.97	86.7
40	NDST4	1	2.22	126	1.54	93.9
41	NDST4	2	0.424	90.3	-0.0923	103
42	NDST4	3	0.051	82.9	0.162	88.8
43	THSD7B	1	-1.35	55	-0.725	74.4
44	THSD7B	2	-1.47	52.6	-1.13	79.2
45	THSD7B	3	-0.349	75	-0.491	95.3
46	ZNF574	1	-1.48	52.5	1.04	44.6
47	ZNF574	2	-0.551	70.9	-0.25	84.6
48	ZNF574	3	-0.655	68.9	-0.293	83.1
49	RASA3	1	0.73	96.4	0.488	94.7
50	RASA3	2	0.75	96.8	0.297	100
51	RASA3	3	1.2	106	0.451	105
52	TULP3	1	1.86	119	2.05	77.4
53	TULP3	2	0.379	89.4	0.15	96.1
54	TULP3	3	-2.18	38.5	-2.55	84.1
55	ADPGK	1	-1.54	51.3	-1.29	80.6
56	ADPGK	2	-0.0685	80.5	-0.375	99.3
57	ADPGK	3	0.977	101	0.18	108
